According to patent US20220196636A1, “GRID OF RESPONSES INDICATING DRUG SENSITIVITY” (The Johns Hopkins University, priority 2019, published 2022):
For at least one compound, name, drawing or mass did not settle the structure.

Columns and labels:
[1] = system: engineered heart slices (EHS) of hiPSC-CMs; assay: GRIDS assay (pace-capture and spontaneous activity by optical mapping), EHS; format: cell-based, human; conditions: nifedipine, all concentrations
Protocol: (§1) Each EHS was placed in Tyrode's solution and stained with 10 μM di-4-ANEPPS for 10 min at 37° C. The EHS was rinsed several times in a dish with warm Tyrode's solution, and then immersed in Tyrode's solution containing 10 μM blebbistatin to suppress contraction. The dish was placed on a 37° C. heated stage for the duration of the experiment. At least 5 min after adding blebbistatin, the EHS was stimulated with a point electrode and optically mapped using a CMOS camera (MiCAM Ultima-L, SciMedia). The EHS was paced by 5 ms monophasic rectangular pulses at stepwise increasing rates starting at 0.5 Hz. For some samples, E-4031, chromanol 293B, nifedipine, Bay K 8644, BaCl2, or cromakalim was added for 7 min prior to mapping. Mapping data were analyzed using custom MATLAB scripts (details provided in Supplemental Information). AP durations at 30% and 80% repolarization (APD30 and APD80) were calculated from the optical voltage signal. For drug studies, APD and conduction velocity (CV) measurements at each concentration were plotted as a percentage of APD and CV measured at baseline, with no drug present. […]
(§2) Optical mapping data was analyzed using custom MATLAB scripts. […]

hiPSC-CM monolayers [2] = assay: Optical mapping of action potential duration and conduction velocity, monolayers; format: cell-based, human
Protocol: (§3) Each EHS was placed in Tyrode's solution and stained with 10 μM di-4-ANEPPS for 10 min at 37° C. The EHS was rinsed several times in a dish with warm Tyrode's solution, and then immersed in Tyrode's solution containing 10 μM blebbistatin to suppress contraction. The dish was placed on a 37° C. heated stage for the duration of the experiment. At least 5 min after adding blebbistatin, the EHS was stimulated with a point electrode and optically mapped using a CMOS camera (MiCAM Ultima-L, SciMedia). The EHS was paced by 5 ms monophasic rectangular pulses at stepwise increasing rates starting at 0.5 Hz. For some samples, E-4031, chromanol 293B, nifedipine, Bay K 8644, BaCl2, or cromakalim was added for 7 min prior to mapping. Mapping data were analyzed using custom MATLAB scripts (details provided in Supplemental Information). AP durations at 30% and 80% repolarization (APD30 and APD80) were calculated from the optical voltage signal. For drug studies, APD and conduction velocity (CV) measurements at each concentration were plotted as a percentage of APD and CV measured at baseline, with no drug present.
(§4) EHS were stained with 10 μM of the voltage-sensitive dye di-4-ANEPPS (Sigma-Aldrich Corp.) in Tyrode's solution for 10 minutes at 37° C. Afterwards, EHS were rinsed twice with Tyrode's and placed in a 35-mm dish filled with Tyrode's and 10 μM of the contraction inhibitor blebbistatin (Sigma-Aldrich Corp.). This dish was set on a stage heated to 37° C. and allowed to equilibrate for at least 5 minutes. […]
(§5) Optical mapping data was analyzed using custom MATLAB scripts. […] Activation times were defined as the maximum of the derivative of membrane potential (dV/dt), which was calculated as previously described (Chartrand, 2011). […] Action potential durations at 30 and 80 percent repolarization (APD30 and APD80) were determined for all local traces over the recording region for each EHS and fit with Gaussian curves to determine the mean value for each EHS, as described for CV measurements. […]

[3] = system: engineered heart slices (EHS) of hiPSC-CMs; assay: Optical mapping of action potential duration and conduction velocity, EHS; format: cell-based, human
Protocol: as §3, §4, §5

healthy adult myocardium = conditions: Mitchell et al., 1982; cited from earlier work
hiPSC-CM monolayers [4] = assay: GRIDS assay (pace-capture and spontaneous activity by optical mapping), monolayers; format: cell-based, human; conditions: nifedipine, as the drug concentration was increased
Protocol: as §1, §2

COC(=O)C1=C(C)NC(C)=C(C(=O)OC)C1c1ccccc1[N+](=O)[O-] [nifedipine]
pace-capture (GRIDS), EHS [1]: never lost pace-capture
change in APD30, monolayers (hiPSC-CM monolayers [2]; 0.1 μM and 0.3 μM nifedipine, 1500 ms PCL, lesser extent than in EHS): decreased APD30
change in APD80, monolayers (hiPSC-CM monolayers [2]; nifedipine (data not shown)): did not affect APD80
change in CV, monolayers (hiPSC-CM monolayers [2]; nifedipine, PCL 1500 ms): did not significantly decrease CV in our preparations, except at a concentration of 0.01 μM in monolayers
change in APD30, EHS ([3]; 0.1 μM and 0.3 μM nifedipine, 1500 ms PCL): decreased APD30 to a greater extent in EHS than in monolayers
change in APD80, EHS ([3]; nifedipine (data not shown)): did not affect APD80
change in CV, EHS ([3]; nifedipine, PCL 1500 ms): did not significantly decrease CV
conduction slowing in healthy adult myocardium (healthy adult myocardium): does not cause conduction slowing
pace-capture (GRIDS), monolayers (hiPSC-CM monolayers [4]): lost pace-capture over a wider range of PCL
